PubChem BioAssay AID652259 | Drosophila RNAi Screening Center – 2013

- Aim: 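Knock-downs that push a Wingless-driven reporter up or down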 (primary screen)
- Cells: Drosophila clone 8 imaginal disc epithelial cells
- Reagents: long dsRNA against Drosophila genes
- Treatment: pathway stimulated by co-transfected Wingless expression plasmid
- Detection: 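Dual luciferase reads per well after Wingless plasmid stimulation: reporter firefly light and Renilla control light; activity is firefly divided by Renilla, a ratio not deposited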
- Scale: firefly reporter light: higher = more Wg reporter light, before normalisation; Renilla control light: higher = more transfected or surviving cells
- Rule for the call: 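Strong candidates differ from their plate mean by at least two out of four per-plate statistical tests; weak candidates meet just one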
- Calls: active = candidate regulator (raises or lowers reporter); inactive = not a candidate
In all, the deposit lists about 22,000 reagents; below is a random part of those with a known target gene and a result. Of all reagents, 233 (1.1%) got an active call. 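Light values are raw, unnormalised plate reads; the ratio scores behind the reporter calls were not deposited.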 Names joined by + are all predicted targets of the reagent. Not given: the amount of reagent, the time to read-out, the dose of the treatment.

Polr3F [SID104195577] | firefly reporter light, replicate 1 = 37140; Renilla control light, replicate 1 = 5794; outcome = inactive
RpS30 [SID104194911] | firefly reporter light, replicate 1 = 8071; Renilla control light, replicate 1 = 1527; outcome = inactive
Pi3K92E [SID104196580] | firefly reporter light, replicate 1 = 3573; firefly reporter light, replicate 2 = 5404; Renilla control light, replicate 1 = 1543; Renilla control light, replicate 2 = 1920; outcome = inactive
CG7326 [SID104199829] | firefly reporter light, replicate 1 = 22401; Renilla control light, replicate 1 = 10248; outcome = inactive
CG7453 [SID104199838] | firefly reporter light, replicate 1 = 20891; Renilla control light, replicate 1 = 9504; outcome = inactive
Oseg5 [SID104183001] | firefly reporter light, replicate 1 = 3767; firefly reporter light, replicate 2 = 7204; Renilla control light, replicate 1 = 1042; Renilla control light, replicate 2 = 3184; outcome = inactive
CG4000 [SID104195327] | firefly reporter light, replicate 1 = 29095; Renilla control light, replicate 1 = 8241; outcome = inactive
CG4000 [SID104201262] | firefly reporter light, replicate 1 = 6.39e5; firefly reporter light, replicate 2 = 5.98e5; Renilla control light, replicate 1 = 2.43e5; Renilla control light, replicate 2 = 2.04e5; outcome = inactive
CG31253 + CG31131 [SID104193631] | firefly reporter light, replicate 1 = 4485; Renilla control light, replicate 1 = 1879; outcome = inactive
CG32988 [SID104182484] | reporter change call, replicate 1 = Wg reporter activity lowered; firefly reporter light, replicate 1 = 2192; firefly reporter light, replicate 2 = 4024; Renilla control light, replicate 1 = 1457; Renilla control light, replicate 2 = 2201; outcome = inactive

Next part, starting with the last 2 of the part before.
CG31253 + CG31131 [SID104193631] | firefly reporter light, replicate 1 = 4485; Renilla control light, replicate 1 = 1879; outcome = inactive
CG32988 [SID104182484] | reporter change call, replicate 1 = Wg reporter activity lowered; firefly reporter light, replicate 1 = 2192; firefly reporter light, replicate 2 = 4024; Renilla control light, replicate 1 = 1457; Renilla control light, replicate 2 = 2201; outcome = inactive
TyrRS-m [SID104184078] | firefly reporter light, replicate 1 = 8885; Renilla control light, replicate 1 = 3555; outcome = inactive
CG13108 [SID104181998] | firefly reporter light, replicate 1 = 2565; firefly reporter light, replicate 2 = 4589; Renilla control light, replicate 1 = 1083; Renilla control light, replicate 2 = 2130; outcome = inactive
CG9173 [SID104188427] | firefly reporter light, replicate 1 = 5376; Renilla control light, replicate 1 = 2784; outcome = inactive
mod [SID104196791] | firefly reporter light, replicate 1 = 1728; firefly reporter light, replicate 2 = 5175; Renilla control light, replicate 1 = 1008; Renilla control light, replicate 2 = 2123; outcome = inactive
HtrA2 [SID104196217] | firefly reporter light, replicate 1 = 11504; Renilla control light, replicate 1 = 2444; outcome = inactive
Drat [SID104186392] | firefly reporter light, replicate 1 = 8291; Renilla control light, replicate 1 = 1696; outcome = inactive
CG5273 [SID104198404] | firefly reporter light, replicate 1 = 19452; Renilla control light, replicate 1 = 13296; outcome = inactive
